According to PubChem BioAssay AID504834 (National Center for Advancing Translational Sciences (NCATS), 2011):
“And” between values parts separate entries of the source, which are not always exact repeats. Equal entries are not always repeated. Among all 320,000 compounds or so, about 22,000 (6.9%) were called active. The shares of active, inactive and inconclusive entries below differ from those in the screen. The call rests on the fitted dose curve; in most records, active means well fitted inhibition curve with a large enough effect; inconclusive means small, poorly fitted or top-dose-only effect, or another doubt; inactive means no such curve, though single readings can be large or run the other way. Potencies of inconclusive entries are doubtful fits and often do not repeat. Where a structure was tested more than once in an assay, its records may differ in their call.

Assay: Primary qHTS for delayed death inhibitors of the malarial parasite plastid, 96 hour incubation
Settings: P. falciparum luciferase reporter growth; series mostly up to 28.7 µM
In short: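 P. falciparum expressing integrated firefly luciferase grown in erythrocytes (2% hematocrit, 0.05% parasitemia final) with compounds for 96 hours at 37 C, 5% CO2. Growth inhibition read as loss of luminescence after adding luciferase detection reagent.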
Potency means the concentration at half of the fitted maximal effect.

| SMILES | Potency |
| --- | --- |
| O=C(CCC(=O)OCC(=O)c1ccc([N+](=O)[O-])cc1)NC1CCCCC1 | inconclusive: 4.15 µM [inhibitor, partial curve, poor fit] |
| CCCCOc1ccc(/C=C/C2=CC(C)(C)NC(=S)N2)cc1OCC | inactive |
| CN(C)c1ccc(/C=N\NC(=O)c2csnn2)cc1 | inactive |
| CCOC(=O)c1c(NC(=O)CSc2nnnn2C)sc(CC)c1C | inactive |
| S=C1NC[C@H](Cc2ccccc2)N1CCc1cccc2ccccc12 | inconclusive: 3.7 µM [inhibitor, partial curve] |
| CC(C)CNC(=O)NC(=O)COC(=O)c1ccccc1Sc1ccc(C(F)(F)F)cc1[N+](=O)[O-] | inconclusive: 18.5 µM [inhibitor, single point] |
| Cc1ccc(S(=O)(=O)N2CCC(=O)N(CCOCc3cccc(C(F)(F)F)c3)CC2)cc1 | inconclusive: 18.5 µM [inhibitor, single point] |
| O/N=C\c1ccc2noc(-c3ccc(Cl)cc3)c2c1 | inactive |
| O=C(Nc1ccc2nn(-c3ccccc3)nc2c1)c1ccco1 | inconclusive: 16.5 µM [inhibitor, partial curve, poor fit] |
| CC(C)CCOc1ccc(NC(=O)C2OC3OC(C)(C)OC3C3OC(C)(C)OC23)cc1 (configuration not stated) | inconclusive: 18.5 µM [inhibitor, single point] |
| CC1CCCCC1NC(=O)C1CCN(C(=O)NC2CCCCC2)CC1 (configuration not stated) | inconclusive: 20.8 µM [inhibitor, partial curve, poor fit] |
| Nn1c(SCC(=O)Nc2cc(S(=O)(=O)N3CCOCC3)ccc2Cl)nnc1-c1cccnc1 | inconclusive: 5.22 µM [inhibitor, partial curve] |
| COC(=O)C1=C(C)NC(=S)NC1c1ccc(OCC(=O)N2CC(C)OC(C)C2)c(OC)c1 (configuration not stated) | inconclusive: 2.94 µM [inhibitor, partial curve, poor fit] |
| Cc1cc(C)c(C#N)c(OCC(=O)c2ccc(Br)cc2)n1 | active: 4.65 µM |
| CCOC(=O)c1c(NC(=O)N/N=C/c2ccc(O)c(OC)c2)sc(C(C)=O)c1C | inconclusive: 2.94 µM [inhibitor, full curve, poor fit] |
| CC(C)CN(C(=O)c1ccc([N+](=O)[O-])s1)c1c(N)n(Cc2ccccc2)c(=O)[nH]c1=O | inconclusive: 13.1 µM [inhibitor, single point] |
| COc1ccccc1CCNC(=O)C(=O)NCC1OCCN1S(=O)(=O)c1cccs1 (configuration not stated) | inconclusive: 18.5 µM [inhibitor, single point] |
| O=C1N(c2cccc(Cl)c2)C(c2cccnc2)N2CCCN12 (configuration not stated) | active: 13.1 µM |
| COCCCN(C(=O)c1ccc2ccccc2n1)c1c(N)n(Cc2ccccc2)c(=O)[nH]c1=O | inactive |
| CC(C)Oc1ccc(S(=O)(=O)N2CCOCC2)cc1NC(=O)C1CCC1 | inconclusive: 0.415 µM [inhibitor, full curve, poor fit] |
| CCOC(=O)N1CCC(N(CCOC)C(=O)Nc2ccc(CC)cc2)CC1 | active: 7.38 µM |
| O=C(NCc1ccccn1)c1cccc(S(=O)(=O)Nc2ccc(SC(F)F)cc2)c1 | inactive |
| CC(C)CCN1CCC(Cc2ccccc2)(NC(=O)c2ccccc2)C1=O (configuration not stated) | inconclusive: 16.5 µM [inhibitor, single point] |

| SMILES | Potency |
| --- | --- |
| Cc1ccccc1N1CCN(S(=O)(=O)c2ccccc2)CC1 | inconclusive: 14.7 µM [inhibitor, partial curve] |
| O=C(CN1CCOc2ccccc21)NCc1ccco1 | inconclusive: 0.586 µM [inhibitor, partial curve, poor fit] |
| CN(c1ccccc1)S(=O)(=O)c1ccc2[nH]c(=O)oc2c1 | inactive |
| CC(C)(C)N/C=C(\C#N)S(=O)(=O)c1ccc(Br)cc1 | inconclusive: 13.1 µM [inhibitor, single point] |
| Cc1ccc(-n2c(=O)c3sccc3n(Cc3cc(=O)n4cc(Cl)ccc4n3)c2=O)cc1F | inconclusive: 4.15 µM [inhibitor, partial curve, poor fit] |
| CCc1ccccc1NC(=O)CN(C)S(=O)(=O)c1ccc(-c2ccc(=O)[nH]n2)s1 | inconclusive: 5.22 µM [inhibitor, partial curve] |
| CCN(CC)CCCN(C(=O)c1ccccc1F)c1nc(-c2ccc(OC)cc2)cs1 | inactive |
| CCOc1ccc(CCNC(=O)COC(=O)c2ccc3c(c2)OCCO3)cc1OCC | inconclusive: 14.7 µM [inhibitor, partial curve, poor fit] |
| CCOc1cc(C(=S)N2CCN(C)CC2)ccc1OCC(=O)N1CCOCC1 | inconclusive: 13.1 µM [inhibitor, partial curve, poor fit] |
| Cc1cccc(CC(=O)NCCn2c(C)cc3ccccc32)c1 | inconclusive: 18.5 µM [inhibitor, partial curve, poor fit] |
| C=CCOC(=O)C1C(=O)CC(C)(O)C(C(=O)OCC=C)C1c1ccc(OCC)cc1 (configuration not stated) | inconclusive: 0.928 µM [inhibitor, full curve] |
| CCc1ccc(OCC(=O)O/N=C(\N)c2ccncc2)c(Br)c1 | active: 7.38 µM |
| CCCCCCc1nc2ccccc2c(=O)n1NC(=O)c1c(O)c2cccc3c2n(c1=O)CCC3 | inconclusive: 18.5 µM [inhibitor, single point] |
| CSCCC(NC(=O)c1ccccc1)C(=O)N1CCN(Cc2ccc(Cl)cc2)CC1 (configuration not stated) | active: 1.65 µM |
| NS(=O)(=O)c1ccc(S(=O)(=O)NCCc2ccccc2)cc1 | inconclusive: 18.5 µM [inhibitor, single point] |
| O=C(N/C=C\n1cnc2cc(C(F)(F)F)ccc21)c1ccc([N+](=O)[O-])cc1 | inactive |
| OCC1(Cc2ccccc2)CCN(Cc2cccc(F)c2F)CC1 | inconclusive: 1.85 µM [inhibitor, full curve] |
| O=C1NC2C(NC(=O)N2C2CCCCC2)N1C1CCCCC1 (configuration not stated) | inconclusive: 18.5 µM [inhibitor, single point] |
| Cc1ccc(C(=O)NC(=S)NNS(=O)(=O)c2ccccc2)cc1 | inconclusive: 3.7 µM [inhibitor, single point] |
| COc1ccc(F)cc1CN1CCN(c2ncnc3scc(-c4ccccc4)c23)CC1 | inconclusive: 10.4 µM [inhibitor, single point] |
| N#Cc1c(N2CCCCC2)nc(N)c2c(N)nc3c(c12)CC(CCl)O3 (configuration not stated) | inconclusive: 2.94 µM [inhibitor, partial curve, poor fit] |
| O=C(Nc1cccc(Cl)c1Cl)c1ccc(-c2ccccc2)cc1 | inactive |
| Cc1ccc(O)c(/C=N/NC(=O)c2[nH]ncc2Br)c1 | inconclusive: 18.5 µM [inhibitor, single point] |

A second format for part of the listing above.
SMILES	Potency
CC(C)(C)N/C=C(\C#N)S(=O)(=O)c1ccc(Br)cc1	inconclusive: 13.1 µM [inhibitor, single point]
Cc1ccc(-n2c(=O)c3sccc3n(Cc3cc(=O)n4cc(Cl)ccc4n3)c2=O)cc1F	inconclusive: 4.15 µM [inhibitor, partial curve, poor fit]
CCc1ccccc1NC(=O)CN(C)S(=O)(=O)c1ccc(-c2ccc(=O)[nH]n2)s1	inconclusive: 5.22 µM [inhibitor, partial curve]
CCN(CC)CCCN(C(=O)c1ccccc1F)c1nc(-c2ccc(OC)cc2)cs1	inactive
CCOc1ccc(CCNC(=O)COC(=O)c2ccc3c(c2)OCCO3)cc1OCC	inconclusive: 14.7 µM [inhibitor, partial curve, poor fit]
CCOc1cc(C(=S)N2CCN(C)CC2)ccc1OCC(=O)N1CCOCC1	inconclusive: 13.1 µM [inhibitor, partial curve, poor fit]
Cc1cccc(CC(=O)NCCn2c(C)cc3ccccc32)c1	inconclusive: 18.5 µM [inhibitor, partial curve, poor fit]
C=CCOC(=O)C1C(=O)CC(C)(O)C(C(=O)OCC=C)C1c1ccc(OCC)cc1 (configuration not stated)	inconclusive: 0.928 µM [inhibitor, full curve]
CCc1ccc(OCC(=O)O/N=C(\N)c2ccncc2)c(Br)c1	active: 7.38 µM
CCCCCCc1nc2ccccc2c(=O)n1NC(=O)c1c(O)c2cccc3c2n(c1=O)CCC3	inconclusive: 18.5 µM [inhibitor, single point]
CSCCC(NC(=O)c1ccccc1)C(=O)N1CCN(Cc2ccc(Cl)cc2)CC1 (configuration not stated)	active: 1.65 µM
NS(=O)(=O)c1ccc(S(=O)(=O)NCCc2ccccc2)cc1	inconclusive: 18.5 µM [inhibitor, single point]

(list continues)

| SMILES | Potency |
| --- | --- |
| CCn1nc(C)c(/C=N/NC(=S)Nc2ccc(Cl)cc2Cl)c1C | inconclusive: 18.5 µM [inhibitor, single point] |
| O=Cc1c(Sc2ccccc2)nc2ccccn2c1=O | active: 7.38 µM |
| CC(=O)Nc1ccc(S(=O)(=O)N(C)CC(=O)NCCC2=CCCCC2)cc1 | inconclusive: 3.29 µM [inhibitor, full curve, poor fit] |
| Cc1cccc(NC(=O)/C(C#N)=C/c2ccc[nH]2)c1C | inactive |
| Cc1ccc(Cl)cc1Nc1nc(-c2sc(NC(=O)c3ccccc3)nc2C)cs1 | active: 2.62 µM |
| CCOC(=O)[C@H]1[C@H]2COc3cc(OC)ccc3[C@@H]2N2C(=O)c3ccc(C)cc3NC(=O)[C@@]12C | inconclusive: 13.1 µM [inhibitor, single point] |
| COC(=O)/C=C1\N/C(=N/c2nc(C)c3cc(OC)ccc3n2)NC1=O | inactive |
| COc1ccc2nc(NC(=O)CCc3nc(-c4ccccc4F)no3)sc2c1 | inconclusive: 0.0465 µM [inhibitor, full curve] |
| CN(C)CCCNC(=O)c1ccc(-c2cc(O)c3ncccc3c2)cc1 | active: 6.57 µM |
| Cc1cc(=O)n2[nH]c(-c3ccc(F)cc3)cc2n1 | inactive |
| CCOC(=O)c1c(NC(=O)c2nn(CC)cc2Br)sc(C)c1C | inactive |
| NC(=O)CC[C@@H]1NC(=O)[C@H](Cc2ccccc2)NC(=O)[C@H](Cc2ccc(O)cc2)NC(=O)[C@@H](N)CSSC[C@@H](C(=O)N2CCC[C@H]2C(=O)N[C@@H](CCCN=C(N)N)C(=O)NCC(N)=O)NC(=O)[C@H](CC(N)=O)NC1=O | inactive and active: 12 µM |
| O=C1NC(=O)C(=Cc2ccccc2OCCOc2ccc([N+](=O)[O-])cc2)C(=O)N1 | inactive |
| O=C(CNC(=O)c1ccc(Br)cc1)OCC(=O)c1ccccc1 | inconclusive: 11.7 µM [inhibitor, single point] |
| N=c1c2c3c(sc2nc2n1CCCCC2)CCCCC3 | inconclusive: 4.65 µM [inhibitor, partial curve, poor fit] |
| O=C(OC1CCOC1=O)c1cc(-c2cccc(Br)c2)nc2ccccc12 (configuration not stated) | inconclusive: 18.5 µM [inhibitor, single point] |
| COc1ccccc1OCc1ccc(C(=O)Nc2ccc(Cl)cn2)o1 | inactive |
| Cc1ccc(C)n1NC(=O)c1ccccc1 | inconclusive: 10.4 µM [inhibitor, single point] |
| Cn1c(SCC(=O)Nc2ccc(Cl)cc2)nc(O)cc1=O | inactive |
| Cc1cc(C)c2nc(-c3ccccn3)cc(C(=O)NCc3cc(C)n(C)n3)c2c1 | inconclusive: 1.04 µM [inhibitor, partial curve, poor fit] |
| Cc1nc(N2CCCCC2)c2sc(=S)n(C)c2n1 | inconclusive: 18.5 µM [inhibitor, single point] |
